Data on one molecule can be found in PMC8934857.

Sequences of proteins named here, by UniProt entry; tags and fusion partners are left off. Residues count along the entry.
UniProt P19438, residues 30-455: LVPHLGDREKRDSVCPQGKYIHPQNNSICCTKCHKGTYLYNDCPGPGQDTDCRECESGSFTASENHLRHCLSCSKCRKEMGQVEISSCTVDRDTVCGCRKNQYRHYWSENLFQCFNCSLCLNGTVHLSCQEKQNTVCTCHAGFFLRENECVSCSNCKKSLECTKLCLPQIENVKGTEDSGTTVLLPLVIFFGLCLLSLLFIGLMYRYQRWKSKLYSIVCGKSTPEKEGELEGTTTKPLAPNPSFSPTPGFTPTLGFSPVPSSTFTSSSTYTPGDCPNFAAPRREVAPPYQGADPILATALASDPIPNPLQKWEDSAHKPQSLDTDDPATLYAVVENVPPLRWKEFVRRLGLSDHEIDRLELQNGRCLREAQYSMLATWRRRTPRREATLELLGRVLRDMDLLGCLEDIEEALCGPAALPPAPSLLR

Results are given in words; binding and its absence hold for the method and conditions named. In cells and extracts the contact can be indirect. Some entries that bind do so weakly or less than the wild type. Tags and fused reporters may be left off the sequences shown.

This assay concerns the target HA-labelled TNFR1 (UniProt P19438). The experiment in a line: co-IP; exogenous co-IP from lysate of HEK293T cells transfected with ANXA1-Flag and/or TNFR1-HA plasmids; precipitated with anti-Flag or anti-HA antibody, Protein A/G PLUS-Agarose; western blot. (In general: A western blot detects proteins with antibodies after separation by electrophoresis.)

B1: Flag-labelled ANXA1 (protein, UniProt P04083 1-346)
chain: MAMVSEFLKQAWFIENEEQEYVQTVKSSKGGPGSAVSPYPTFNPSSDVAALHKAIMVKGVDEATIIDILTKRNNAQRQQIKAAYLQETGKPLDETLKKALTGHLEEVVLALLKTPAQFDADELRAAMKGLGTDEDTLIEILASRTNKEIRDINRVYREELKRDLAKDITSDTSGDFRNALLSLAKGDRSEDFGVNEDLADSDARALYEAGERRKGTDVNVFNTILTTRSYPQLRRVFQKYTKYSKHDMNKVLDLELKGDIEKCLTAIVKCATSKPAFFAEKLHQAMKGVGTRHKALIRIMVSRSEIDMNDIKAFYQKMYGISLCQAILDETKGDYEKILVALCGGN
For B1, the binding result is given as “binds”.
